Results are given in words; binding and its absence hold for the method and conditions named. Binding seen in cells or lysates may run through a third protein. For part of these data: Binding can be weak; no strength is given. Where a sequence is shown, tags or fusion partners need not be part of it.
Experiments:
Experiment in all cases: split reporter; BiFC with split EYFP (1-174 / 175-end) in N. benthamiana epidermal cells, Agrobacterium EHA105 infiltration, confocal microscopy after 3 days
[1] = target: T1, Arabidopsis CAP BINDING PROTEIN 20 (AtCBP20), BiFC fusion (Arabidopsis) (UniProt Q9XFD1)
T1 sequence: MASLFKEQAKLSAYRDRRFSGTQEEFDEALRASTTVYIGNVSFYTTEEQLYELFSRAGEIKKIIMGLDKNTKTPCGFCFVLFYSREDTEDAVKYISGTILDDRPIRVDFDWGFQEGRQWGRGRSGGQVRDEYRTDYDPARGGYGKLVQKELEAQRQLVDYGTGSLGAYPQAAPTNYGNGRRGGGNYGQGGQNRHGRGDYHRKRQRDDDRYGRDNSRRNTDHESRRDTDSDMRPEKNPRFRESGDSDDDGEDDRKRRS

[2] = target: T2, Arabidopsis HYPONASTIC LEAVES1 (AtDRB1/AtHYL1), BiFC fusion (Arabidopsis) (UniProt O04492)
T2 sequence: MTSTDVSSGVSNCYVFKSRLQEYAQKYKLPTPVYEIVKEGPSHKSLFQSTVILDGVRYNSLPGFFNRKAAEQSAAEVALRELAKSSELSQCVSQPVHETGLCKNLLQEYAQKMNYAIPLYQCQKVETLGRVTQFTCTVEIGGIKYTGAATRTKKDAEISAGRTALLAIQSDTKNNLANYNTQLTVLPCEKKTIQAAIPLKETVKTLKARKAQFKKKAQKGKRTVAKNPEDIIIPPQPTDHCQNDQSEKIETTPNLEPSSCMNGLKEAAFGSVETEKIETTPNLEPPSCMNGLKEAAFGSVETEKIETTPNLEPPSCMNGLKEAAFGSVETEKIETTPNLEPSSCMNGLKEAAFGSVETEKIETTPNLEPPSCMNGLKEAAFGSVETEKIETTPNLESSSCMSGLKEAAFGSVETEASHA

[3] = target: T3, Arabidopsis zinc finger protein SERRATE (AtSE), BiFC fusion (Arabidopsis) (UniProt Q9ZVD0)
T3 sequence: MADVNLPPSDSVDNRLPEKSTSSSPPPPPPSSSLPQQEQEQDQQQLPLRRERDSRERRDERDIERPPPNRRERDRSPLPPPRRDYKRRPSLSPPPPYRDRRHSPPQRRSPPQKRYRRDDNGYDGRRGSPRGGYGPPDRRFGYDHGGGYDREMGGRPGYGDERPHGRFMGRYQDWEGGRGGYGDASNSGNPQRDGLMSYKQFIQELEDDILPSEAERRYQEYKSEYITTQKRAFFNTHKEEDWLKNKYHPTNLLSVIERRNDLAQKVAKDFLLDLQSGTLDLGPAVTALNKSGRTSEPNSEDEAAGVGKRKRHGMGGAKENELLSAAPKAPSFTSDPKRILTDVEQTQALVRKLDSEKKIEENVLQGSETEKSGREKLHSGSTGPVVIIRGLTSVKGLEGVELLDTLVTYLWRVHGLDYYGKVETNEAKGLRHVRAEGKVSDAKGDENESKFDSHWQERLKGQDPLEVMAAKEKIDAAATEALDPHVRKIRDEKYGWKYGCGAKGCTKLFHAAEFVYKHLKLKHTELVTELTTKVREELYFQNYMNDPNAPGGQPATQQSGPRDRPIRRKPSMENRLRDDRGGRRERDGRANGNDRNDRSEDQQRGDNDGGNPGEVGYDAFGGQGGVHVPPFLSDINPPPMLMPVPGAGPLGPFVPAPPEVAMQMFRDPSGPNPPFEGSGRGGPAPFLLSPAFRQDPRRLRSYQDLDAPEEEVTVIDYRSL

“Rice stripe virus (RSV)-encoded nonstructural protein 3 (NS3), BiFC fusion” was tested, and the binding [1] was “no binding”, the binding [2] was “binds” and the binding [3] was “binds”.
